Experimental data reported in US11311562B2, “Methods for reducing the incidence of oxidative stress using human milk oligosaccharides, vitamin c and anti-inflammatory agents” (priority 2010, dated 2022).
At least one structure is not confirmed: it was looked up by name or label, or the drawing left a doubt.

How the values were obtained:
H1N1 influenza virus = assay type: cell-based; details: HMO at 1 mg/mL
[1] = tested on: human parainfluenza virus (HPIV3); assay type: cell-based; details: HMO at 1 mg/mL

## CC(=O)N[C@H]1[C@H]([C@H](O)[C@H](O)CO)OC(O)(C(=O)O)C[C@@H]1O (some centres unmarked) [SA, sialic acid]
H1N1 influenza virus
  anti-viral activity against H1N1 influenza virus: significantly inhibits
[1]
  anti-viral activity against HPIV3: significantly inhibits
